From PubChem BioAssay AID540256 (National Center for Advancing Translational Sciences (NCATS), 2011)
Screen size: about 300,000 compounds; about 3,700 (1.2%) were called active. Inconclusive means that the source gave no clear call. Such entries were picked first, then a sample of the others. The call rests on the fitted dose curve; tested in HEK293 cells. Where the call is inconclusive, the potency comes from a doubtful curve fit.
On the % scale 0 is the no-effect control and ±100 the full control effect; potency means the concentration at half of the fitted maximal effect.

Test: qHTS for Inhibitors of binding or entry into cells for Lassa Virus; further: nearly all actives have a fitted effect of over 50% in size
Details: Lassa virus pseudotype entry inhibition, cell reporter; activity change, negative = inhibition: at 37.9 µM (top of the series) unless noted
In the case of `CCC(C)n1nnc2c(=O)oc3ccccc3c21` (stereo not given), the Potency is reported as inconclusive: 0.73 µM [activator, full curve, poor fit]. For `CCOC(=O)C1CCN(C(=O)Nc2ccc3c(c2)nc(C)n3C)CC1`, the “activity change, negative = inhibition” value was inactive: -13.7%. In the case of `O=C1NN(c2ccccc2)C(=O)C2C3C=CC(C4CC34)C12` (stereo not given), the “activity change, negative = inhibition” value is reported as inactive: 5.1%. In the case of `CN(C)/C=C\C(=C/C(=O)C(F)(F)F)Nc1ccccc1Oc1ccccc1`, the Potency is reported as inconclusive: 20 µM [inhibitor, single point]. With `COc1ccc(CCC(=O)NCCS(=O)(=O)N2CCN(c3ccccc3F)CC2)cc1` the “activity change, negative = inhibition” value was inactive: -20.6% [at 46.1 µM]. In the case of `CSc1nnc2c3c4c(sc3c(=O)n(-c3ccccc3)n12)CC(C)(C)OC4`, the “activity change, negative = inhibition” value is reported as inactive: 5.83%. For `O=C1CCc2cc(S(=O)(=O)NCCc3ccccc3)cc3c2N1CC3`, the “activity change, negative = inhibition” value was inactive: -32.1%. For `CC1(C)CC(=O)C(C=NCCN2CCN(C(=O)c3ccc(F)cc3)CC2)=C(O)C1`, the “activity change, negative = inhibition” value was inactive: 13.7%. For `C=CCn1c(SCC(=O)Nc2c(C)n(C)n(-c3ccccc3)c2=O)nc2sc(C)c(-c3ccccc3)c2c1=O`, the Potency was inconclusive: 0.0158 µM [inhibitor, full curve, poor fit]. With `Cc1cc(Br)ccc1NC(=O)CCN1C(=O)c2ccncc2C1=O` the Potency was inconclusive: 2.24 µM [inhibitor, partial curve]. In the case of `Cc1cccc(NC(=O)[C@@H]2CCCN2C(=O)OC(C)(C)C)c1`, the Potency is reported as inconclusive: 31.6 µM [activator, single point]. In the case of `Cc1cccc(N(CC(=O)NCC2CCCO2)C(=O)CNS(=O)(=O)c2ccc(Cl)cc2)c1` (stereo not given), the Potency is reported as inconclusive: 35.5 µM [inhibitor, single point]. For `CC(C)(C)c1ccc(-c2noc(-c3ccc4c(c3)CCO4)n2)cc1`, the “activity change, negative = inhibition” value was inactive: 13.9%. In the case of `C/C(=N\NC(=O)c1c[nH]c2ccccc12)c1ccco1`, the Potency is reported as inconclusive: 7.3 µM [activator, partial curve]. For `CN1/C(=C\C=C2C(=O)NC(=S)NC2=O)C(C)(C)c2ccccc21`, the “activity change, negative = inhibition” value was inactive: -22.2% [at 46.1 µM]. For `Cc1ccc(SC(C)c2nc(-c3ccccc3)no2)cc1` (stereo not given), the “activity change, negative = inhibition” value was inactive: 24.2%. In the case of `CC(C)(C)c1ccc(C(=O)N(Cc2ccc(F)cc2)Cc2ccco2)cc1`, the Potency is reported as inconclusive: 35.5 µM [inhibitor, partial curve, poor fit]. With `O=C(NCc1ccc2c(c1)OCO2)NC12CC3CC(CC(C3)C1)C2` the Potency was inconclusive: 11.2 µM [inhibitor, partial curve, poor fit]. For `COc1cc(Cl)c(C)cc1NC(=O)c1cnn(-c2ccc(F)cc2F)c1C1CCN(C(=O)OC(C)(C)C)CC1`, the Potency was inconclusive: 5.01 µM [inhibitor, partial curve, poor fit]. In the case of `O=C(c1cccc(S(=O)(=O)N2CCc3ccccc3C2)c1)N1CCN(c2ccccc2)CC1`, the Potency is reported as active: 16.4 µM. In the case of `Cc1cc(C)nc(SCNC(=O)c2ccc(F)cc2)n1`, the “activity change, negative = inhibition” value is reported as inactive: -14.2%. In the case of `COc1ccc2nc(SCC(=O)Nc3c(C)cccc3C)[nH]c2c1`, the “activity change, negative = inhibition” value is reported as inactive: -6.24%. With `Cc1nc(Cl)sc1C(=O)Nc1ccc2ccccc2c1` the Potency was inconclusive: 0.631 µM [activator, single point]. With `CC(C)OC(=O)c1ccc2nc3ccccc3nc2c1` the Potency was inconclusive: 14.1 µM [inhibitor, partial curve, poor fit]. With `CCc1cc2c(SCC(=O)NC(=O)c3cccn3C)ncnc2s1` the Potency was inconclusive: 35.5 µM [inhibitor, single point]. In the case of `CCCC(=O)Nc1ccc2c(c1)nc1n2CCOC1`, the Potency is reported as inconclusive: 4.61 µM [inhibitor, partial curve, poor fit]. For `O=C1OC(/C(=C\NCc2ccccc2)[N+](=O)[O-])c2ccccc21` (stereo not given), the Potency was inconclusive: 2.82 µM [inhibitor, partial curve, poor fit]. For `COc1ccc(-n2ncc3c(NCCN4CCOCC4)ncnc32)cc1`, the Potency was inconclusive: 2.06 µM [activator, partial curve, poor fit]. With `COc1cccc2cc(-c3nnc(SCC(=O)Nc4nc(C)cs4)n3C)oc12` the Potency was inconclusive: 13 µM [inhibitor, partial curve, poor fit]. For `Cc1cc(=O)n2[nH]c(-c3ccccc3)cc2n1`, the “activity change, negative = inhibition” value was inactive: 17.4%. For `CC(/C=C/c1ccc(N(C)C)cc1)=N\N=C1\NC(=O)CC(C(=O)Nc2ccccc2)S1` (stereo not given), the Potency was inconclusive: 2.59 µM [activator, partial curve, poor fit]. In the case of `O=S(=O)(c1ccccc1)c1nc(-c2cccc(Cl)c2)oc1N1CCOCC1`, the Potency is reported as inconclusive: 4.47 µM [inhibitor, full curve, poor fit]. With `O=C(CCc1ccc(S(=O)(=O)N2CCOCC2)cc1)N/N=C/c1cccc(O)c1` the Potency was inconclusive: 4.61 µM [inhibitor, partial curve, poor fit]. With `CCc1ccccc1NC(=S)NCCSc1ccc(Cl)cc1` the Potency was inconclusive: 11.2 µM [inhibitor, partial curve, poor fit]. In the case of `Cc1cc(NC(=O)Cn2c(=O)oc3cc(S(=O)(=O)N4CCCC4)ccc32)ccc1Br`, the “activity change, negative = inhibition” value is reported as inactive: -22.2% [at 46.1 µM]. With `CCCOC(=O)c1ccc(NC(=O)C(=O)NCC2CCCO2)cc1` (stereo not given) the “activity change, negative = inhibition” value was inactive: 0.556%. In the case of `C[n+]1ccccc1/C=C/c1ccc([N+](=O)[O-])cc1`, the “activity change, negative = inhibition” value is reported as inactive: 8.31% [at 46.1 µM]. With `Cc1ccc(C)c(S(=O)(=O)Nc2cc(SCC(=O)O)c(O)c3ccccc23)c1` the Potency was inconclusive: 29.1 µM [inhibitor, single point]. In the case of `Cc1ccc(C(=O)NCc2cccnc2)cc1S(=O)(=O)N1CCCCCC1`, the Potency is reported as inconclusive: 12.6 µM [inhibitor, single point]. In the case of `Cc1occc1C(=O)N/N=C/c1c[nH]c2ccccc12`, the “activity change, negative = inhibition” value is reported as inactive: 8.12%. In the case of `CCCCCCCCNC(=O)/C(C#N)=C/c1ccccc1[N+](=O)[O-]`, the Potency is reported as inconclusive: 15.8 µM [inhibitor, partial curve]. In the case of `Cc1ccc(Cn2cccc(C(=O)Nc3ccc4c(c3)OCCO4)c2=O)cc1`, the Potency is reported as inconclusive: 11.2 µM [inhibitor, partial curve, poor fit]. With `Cc1cc(-c2nnc(SCC(=O)Nc3ccc(F)cc3)n2N)n[nH]1` the Potency was inconclusive: 17.8 µM [activator, single point]. With `Cc1ccc(C2SCC(C(=O)O)N2C(=O)c2ccc(F)cc2)cc1` (stereo not given) the “activity change, negative = inhibition” value was inactive: 7.97%. In the case of `COc1cc(CNCc2ccco2)ccc1OCc1ccccc1`, the “activity change, negative = inhibition” value is reported as inactive: -18.4%.
